The list shows a part of the results. Most values lie at the level of the controls, where differences are scatter.
Compound: CC1(C)S[C@@H]2[C@H](NC(=O)[C@H](N)c3ccccc3)C(=O)N2[C@H]1C(=O)O [ampicillin]
Assay: log2 fold change of tryptic peptide abundance, ligand vs vehicle (limited proteolysis) (log2 ratio); higher = more trypsin-susceptible (destabilized)
Settings: ligand concentration: 10 uM; sample: E. coli crude lysate

Chains of the proteins cited; added tags and fusions are not shown. Lines headed by an entry give the natural chain unless they say otherwise; changes in a name come on top.
UniProt P29744: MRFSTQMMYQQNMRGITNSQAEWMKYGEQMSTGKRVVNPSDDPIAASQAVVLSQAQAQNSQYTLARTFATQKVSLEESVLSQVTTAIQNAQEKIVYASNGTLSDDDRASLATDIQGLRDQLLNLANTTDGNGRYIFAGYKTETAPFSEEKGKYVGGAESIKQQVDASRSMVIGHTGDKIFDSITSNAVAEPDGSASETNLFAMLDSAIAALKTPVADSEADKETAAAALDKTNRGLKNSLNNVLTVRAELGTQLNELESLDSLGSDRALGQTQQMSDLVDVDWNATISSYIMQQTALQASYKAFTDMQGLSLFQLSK
UniProt P28904: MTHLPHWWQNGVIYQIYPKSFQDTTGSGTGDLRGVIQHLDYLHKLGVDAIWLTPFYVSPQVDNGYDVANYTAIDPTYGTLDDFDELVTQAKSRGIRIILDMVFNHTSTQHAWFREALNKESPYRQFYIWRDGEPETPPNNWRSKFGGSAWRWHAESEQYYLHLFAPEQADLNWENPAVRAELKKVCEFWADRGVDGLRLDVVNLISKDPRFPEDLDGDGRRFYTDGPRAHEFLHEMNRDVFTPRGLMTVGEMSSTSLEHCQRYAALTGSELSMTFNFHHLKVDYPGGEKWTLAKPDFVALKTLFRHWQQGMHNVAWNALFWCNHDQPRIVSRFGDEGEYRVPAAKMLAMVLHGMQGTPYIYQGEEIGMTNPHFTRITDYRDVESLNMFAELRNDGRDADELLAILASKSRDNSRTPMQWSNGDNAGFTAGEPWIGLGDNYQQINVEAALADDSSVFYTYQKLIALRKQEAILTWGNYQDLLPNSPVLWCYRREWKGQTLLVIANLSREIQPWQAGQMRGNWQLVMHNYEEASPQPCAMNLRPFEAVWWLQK
UniProt P32108: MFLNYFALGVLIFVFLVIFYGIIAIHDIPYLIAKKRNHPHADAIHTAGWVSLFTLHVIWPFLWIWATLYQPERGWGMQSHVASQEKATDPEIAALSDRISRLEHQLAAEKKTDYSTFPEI
UniProt P28861: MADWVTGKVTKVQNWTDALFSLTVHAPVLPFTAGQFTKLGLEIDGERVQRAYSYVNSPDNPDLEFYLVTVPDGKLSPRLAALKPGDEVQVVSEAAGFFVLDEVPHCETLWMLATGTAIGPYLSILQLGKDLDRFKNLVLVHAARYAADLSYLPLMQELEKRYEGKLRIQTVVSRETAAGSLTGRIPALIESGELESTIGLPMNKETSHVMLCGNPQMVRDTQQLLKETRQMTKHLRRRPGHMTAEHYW
UniProt P25894: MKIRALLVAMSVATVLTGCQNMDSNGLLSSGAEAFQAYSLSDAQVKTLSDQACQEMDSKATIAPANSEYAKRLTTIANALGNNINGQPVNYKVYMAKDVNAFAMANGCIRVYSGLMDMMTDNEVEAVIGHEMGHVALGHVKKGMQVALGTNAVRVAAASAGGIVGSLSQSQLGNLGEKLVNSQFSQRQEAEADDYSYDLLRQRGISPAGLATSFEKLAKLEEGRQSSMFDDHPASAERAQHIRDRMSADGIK
UniProt P30149: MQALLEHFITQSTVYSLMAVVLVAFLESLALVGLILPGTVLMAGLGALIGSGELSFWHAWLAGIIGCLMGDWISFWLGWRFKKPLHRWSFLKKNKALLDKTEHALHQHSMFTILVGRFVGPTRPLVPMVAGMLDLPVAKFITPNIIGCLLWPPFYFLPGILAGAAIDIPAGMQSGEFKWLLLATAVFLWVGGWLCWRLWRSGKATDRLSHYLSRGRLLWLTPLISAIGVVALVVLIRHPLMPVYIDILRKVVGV
UniProt P31224: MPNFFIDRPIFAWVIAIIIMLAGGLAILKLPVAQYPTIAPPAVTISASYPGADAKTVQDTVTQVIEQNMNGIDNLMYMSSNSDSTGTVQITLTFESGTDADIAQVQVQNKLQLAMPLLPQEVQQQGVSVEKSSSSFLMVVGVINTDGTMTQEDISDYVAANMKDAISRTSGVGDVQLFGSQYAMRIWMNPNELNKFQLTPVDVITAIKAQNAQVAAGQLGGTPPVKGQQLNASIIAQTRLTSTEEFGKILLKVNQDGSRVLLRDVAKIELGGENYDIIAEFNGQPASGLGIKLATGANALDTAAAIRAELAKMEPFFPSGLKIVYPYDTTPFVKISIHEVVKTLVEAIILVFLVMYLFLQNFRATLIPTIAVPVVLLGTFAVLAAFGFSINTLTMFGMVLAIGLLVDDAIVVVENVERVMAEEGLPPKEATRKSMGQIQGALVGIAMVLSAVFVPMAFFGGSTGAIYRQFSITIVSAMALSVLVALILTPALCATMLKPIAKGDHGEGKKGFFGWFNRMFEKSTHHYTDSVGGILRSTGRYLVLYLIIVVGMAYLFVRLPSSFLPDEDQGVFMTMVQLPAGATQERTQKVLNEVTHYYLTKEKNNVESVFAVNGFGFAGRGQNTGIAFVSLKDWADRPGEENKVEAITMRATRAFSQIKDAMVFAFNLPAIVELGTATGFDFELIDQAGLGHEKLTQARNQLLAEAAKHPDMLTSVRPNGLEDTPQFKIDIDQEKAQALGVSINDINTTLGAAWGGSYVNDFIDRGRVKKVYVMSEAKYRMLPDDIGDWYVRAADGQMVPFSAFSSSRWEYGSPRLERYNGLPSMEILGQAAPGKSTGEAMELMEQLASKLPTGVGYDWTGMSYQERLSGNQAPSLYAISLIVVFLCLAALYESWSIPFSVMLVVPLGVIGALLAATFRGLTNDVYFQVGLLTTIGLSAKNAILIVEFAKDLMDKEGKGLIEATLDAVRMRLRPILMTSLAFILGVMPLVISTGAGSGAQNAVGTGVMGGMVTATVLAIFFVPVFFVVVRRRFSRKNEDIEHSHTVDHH
UniProt P25666: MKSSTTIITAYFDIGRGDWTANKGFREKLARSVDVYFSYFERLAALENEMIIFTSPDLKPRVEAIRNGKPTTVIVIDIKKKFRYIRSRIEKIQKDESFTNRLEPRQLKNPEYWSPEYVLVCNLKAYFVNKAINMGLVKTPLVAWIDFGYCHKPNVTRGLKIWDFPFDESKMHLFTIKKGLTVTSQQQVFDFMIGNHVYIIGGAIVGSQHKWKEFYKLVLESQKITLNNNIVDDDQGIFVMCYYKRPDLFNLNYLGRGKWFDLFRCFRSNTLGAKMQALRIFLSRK
UniProt P27253: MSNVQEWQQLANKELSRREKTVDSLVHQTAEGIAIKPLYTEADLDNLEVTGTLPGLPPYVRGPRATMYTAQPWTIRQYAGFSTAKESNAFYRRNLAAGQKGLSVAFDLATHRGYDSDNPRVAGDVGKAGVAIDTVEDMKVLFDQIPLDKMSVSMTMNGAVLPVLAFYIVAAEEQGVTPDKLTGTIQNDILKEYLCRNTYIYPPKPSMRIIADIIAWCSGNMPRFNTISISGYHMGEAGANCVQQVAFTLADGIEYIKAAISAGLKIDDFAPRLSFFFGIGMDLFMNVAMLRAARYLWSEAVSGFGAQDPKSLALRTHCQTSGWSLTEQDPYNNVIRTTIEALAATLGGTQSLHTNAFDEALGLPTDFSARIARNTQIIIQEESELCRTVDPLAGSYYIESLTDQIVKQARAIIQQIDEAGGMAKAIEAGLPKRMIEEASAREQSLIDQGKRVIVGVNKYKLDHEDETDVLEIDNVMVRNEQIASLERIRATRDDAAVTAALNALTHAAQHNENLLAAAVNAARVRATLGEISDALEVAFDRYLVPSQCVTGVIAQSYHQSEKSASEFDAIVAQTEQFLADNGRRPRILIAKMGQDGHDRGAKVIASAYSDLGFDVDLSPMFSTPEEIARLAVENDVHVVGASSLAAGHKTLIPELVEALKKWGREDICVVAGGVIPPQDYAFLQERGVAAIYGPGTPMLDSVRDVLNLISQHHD
UniProt P24200: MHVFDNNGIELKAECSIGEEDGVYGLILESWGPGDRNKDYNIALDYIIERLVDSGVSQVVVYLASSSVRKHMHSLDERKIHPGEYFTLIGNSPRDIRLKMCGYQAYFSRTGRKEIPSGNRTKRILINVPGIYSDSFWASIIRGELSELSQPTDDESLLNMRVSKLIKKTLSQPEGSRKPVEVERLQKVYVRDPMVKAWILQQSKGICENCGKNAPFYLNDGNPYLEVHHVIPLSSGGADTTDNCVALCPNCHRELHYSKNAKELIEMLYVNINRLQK
UniProt P32131: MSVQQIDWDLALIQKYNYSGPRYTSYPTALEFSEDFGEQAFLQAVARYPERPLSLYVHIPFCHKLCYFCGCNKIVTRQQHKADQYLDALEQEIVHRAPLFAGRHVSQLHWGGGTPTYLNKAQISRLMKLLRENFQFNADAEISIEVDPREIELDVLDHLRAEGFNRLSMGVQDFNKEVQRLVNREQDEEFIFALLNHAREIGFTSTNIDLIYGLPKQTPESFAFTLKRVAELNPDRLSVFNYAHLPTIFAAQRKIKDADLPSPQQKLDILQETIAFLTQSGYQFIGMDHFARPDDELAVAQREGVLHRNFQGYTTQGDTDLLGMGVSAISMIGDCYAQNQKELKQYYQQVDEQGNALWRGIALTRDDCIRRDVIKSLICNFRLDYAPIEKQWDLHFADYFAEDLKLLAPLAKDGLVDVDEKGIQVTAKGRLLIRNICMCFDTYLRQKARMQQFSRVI
UniProt P24180: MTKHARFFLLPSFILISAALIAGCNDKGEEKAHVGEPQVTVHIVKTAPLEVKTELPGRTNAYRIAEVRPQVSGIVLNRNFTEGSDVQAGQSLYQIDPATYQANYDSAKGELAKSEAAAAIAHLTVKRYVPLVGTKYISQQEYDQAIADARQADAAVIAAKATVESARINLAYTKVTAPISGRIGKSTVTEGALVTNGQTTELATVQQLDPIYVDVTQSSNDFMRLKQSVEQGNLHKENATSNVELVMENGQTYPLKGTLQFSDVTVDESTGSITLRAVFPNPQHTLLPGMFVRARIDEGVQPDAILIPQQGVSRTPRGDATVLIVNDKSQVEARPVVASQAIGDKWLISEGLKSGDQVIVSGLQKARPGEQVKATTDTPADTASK

Row | Target | log2 fold change
1 | UniProt P29744 (peptide sequence: GITNSQAEWMK, peptide start residue: 15) | -0.384
2 | UniProt P28904 (peptide sequence: GQTLLVIANLSR, peptide start residue: 496) | 0.283
3 | UniProt P32108 (peptide sequence: LEHQLAAEK, peptide start residue: 102) | -0.106
4 | UniProt P28861 (peptide sequence: RPGHMTAEHYW, peptide start residue: 238) | 0.156
5 | UniProt P25894 (peptide sequence: GISPAGLATSFEKLAK, peptide start residue: 204) | -0.533
6 | UniProt P30149 (peptide sequence: LSHYLSR, peptide start residue: 208) | 0.0766
7 | UniProt P31224 (peptide sequence: VLNEVTHYYLTK, peptide start residue: 590) | -0.501
8 | UniProt P25666 (peptide sequence: MHLFTIK, peptide start residue: 171) | 0.293
9 | UniProt P27253 (peptide sequence: NEQIASLER, peptide start residue: 479) | -0.496
10 | UniProt P24200 (peptide sequence: TLSQPEGSRKPVEVER, peptide start residue: 169) | -0.644
11 | UniProt P32131 (peptide sequence: LSVFNYAHLPTIFAAQRK, peptide start residue: 237) | -0.645
12 | UniProt P24180 (peptide sequence: SGDQVIVSGLQK, peptide start residue: 354) | 0.316

Part of the list above, as a markdown table.

| Row | Target | log2 fold change |
| --- | --- | --- |
| 4 | UniProt P28861 (peptide sequence: RPGHMTAEHYW, peptide start residue: 238) | 0.156 |
| 10 | UniProt P24200 (peptide sequence: TLSQPEGSRKPVEVER, peptide start residue: 169) | -0.644 |
